PubChem BioAssay AID1224830 – NIAID, 2016
Screen: 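Host factors that control LPS-induced TNF expression in human macrophages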 (primary screen). Cell system: human THP-1 monocytic leukaemia cells, TNF dual-luciferase reporter clone, PMA-differentiated to macrophage-like cells. Reagent: siRNA pool against human genes, 50 nM. Timing: LPS for 4 h, given about 3 days after siRNA transfection. Conditions: bacterial LPS (TLR4 ligand), 10 ng/ml. Measurement: 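Ratio of firefly to renilla light, scaled to the plate median and expressed as a robust z-score per replicate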. Reading the numbers: TNF reporter robust z-score: higher = stronger TNF reporter response to LPS. Active means: 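a well is active when its z-score exceeds 2.8 or falls below -1.5; control wells carry no call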.
This is one part, drawn at random, of about 18,000 reagents tested. About 2,900 of all reagents (16%) count as active. 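Calls are made per well; low scores hint the gene aids the LPS response, high scores that it dampens it.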 Repeated entries: four replicate wells of each siRNA pool.

| Gene | PubChem SID | TNF reporter robust z-score | call |
| --- | --- | --- | --- |
| BORCS7 | SID315461463 | 0.15 | inactive |
| BORCS7 | SID315461463 | 0.87 | inactive |
| BORCS7 | SID315461463 | 0.78 | inactive |
| BORCS7 | SID315461463 | 1.91 | inactive |
| DNAAF1 | SID315461591 | 0.78 | inactive |
| DNAAF1 | SID315461591 | -1.14 | inactive |
| DNAAF1 | SID315461591 | -1.08 | inactive |
| DNAAF1 | SID315461591 | -1.21 | inactive |
| DNAAF1 | SID315461591 | 0.85 | inactive |
| DNAAF1 | SID315461591 | -0.73 | inactive |
| DNAAF1 | SID315461591 | 1.33 | inactive |
| DNAAF1 | SID315461591 | 2.33 | inactive |
| RALYL | SID315462035 | 0.41 | inactive |
| RALYL | SID315462035 | 0.64 | inactive |
| RALYL | SID315462035 | 0.32 | inactive |
| RALYL | SID315462035 | -0.35 | inactive |
| CLU | SID315447964 | -0.49 | inactive |
| CLU | SID315447964 | -0.26 | inactive |
| CLU | SID315447964 | -0.39 | inactive |
| CLU | SID315447964 | 0.32 | inactive |
| ELMOD2 | SID315463498 | 2.78 | inactive |
| ELMOD2 | SID315463498 | 0.39 | inactive |
| ELMOD2 | SID315463498 | 0.84 | inactive |
| ELMOD2 | SID315463498 | 1.33 | inactive |
| TNFAIP3 | SID315451922 | -0.31 | inactive |
| TNFAIP3 | SID315451922 | 0.1 | inactive |
| TNFAIP3 | SID315451922 | -0.25 | inactive |
| TNFAIP3 | SID315451922 | 0.31 | inactive |
| SHPK | SID315455412 | 0.1 | inactive |
| SHPK | SID315455412 | 0.27 | inactive |
| SHPK | SID315455412 | 1.54 | inactive |
| SHPK | SID315455412 | 1.9 | inactive |
| MMACHC | SID315455588 | 1.51 | inactive |
| MMACHC | SID315455588 | 2.29 | inactive |
| MMACHC | SID315455588 | 0.93 | inactive |
| MMACHC | SID315455588 | 0.71 | inactive |
| MRPS18B | SID315456089 | -0.92 | inactive |
| MRPS18B | SID315456089 | -0.89 | inactive |
| MRPS18B | SID315456089 | -0.48 | inactive |
| MRPS18B | SID315456089 | -0.06 | inactive |
| GFM1 | SID315460712 | 0.85 | inactive |
| GFM1 | SID315460712 | 0.07 | inactive |
| GFM1 | SID315460712 | -0.24 | inactive |
| GFM1 | SID315460712 | 0.64 | inactive |
| TESMIN | SID315453438 | 0.52 | inactive |
| TESMIN | SID315453438 | -0.12 | inactive |
| TESMIN | SID315453438 | -0.5 | inactive |
| TESMIN | SID315453438 | 0.65 | inactive |
| NELFA | SID315452140 | 4.02 | active |
| NELFA | SID315452140 | 2.72 | inactive |
| NELFA | SID315452140 | 2.53 | inactive |
| NELFA | SID315452140 | 3.45 | active |
| LHFPL7 | SID315463491 | -0.77 | inactive |
| LHFPL7 | SID315463491 | -0.97 | inactive |
| LHFPL7 | SID315463491 | -0.81 | inactive |
| LHFPL7 | SID315463491 | -1.1 | inactive |
| S100PBP | SID315458979 | -1.24 | inactive |
| S100PBP | SID315458979 | -0.7 | inactive |
| S100PBP | SID315458979 | -1.28 | inactive |
| S100PBP | SID315458979 | -0.52 | inactive |

Continued (17 carried over from the part before).
| Gene | PubChem SID | TNF reporter robust z-score | call |
| --- | --- | --- | --- |
| GFM1 | SID315460712 | 0.64 | inactive |
| TESMIN | SID315453438 | 0.52 | inactive |
| TESMIN | SID315453438 | -0.12 | inactive |
| TESMIN | SID315453438 | -0.5 | inactive |
| TESMIN | SID315453438 | 0.65 | inactive |
| NELFA | SID315452140 | 4.02 | active |
| NELFA | SID315452140 | 2.72 | inactive |
| NELFA | SID315452140 | 2.53 | inactive |
| NELFA | SID315452140 | 3.45 | active |
| LHFPL7 | SID315463491 | -0.77 | inactive |
| LHFPL7 | SID315463491 | -0.97 | inactive |
| LHFPL7 | SID315463491 | -0.81 | inactive |
| LHFPL7 | SID315463491 | -1.1 | inactive |
| S100PBP | SID315458979 | -1.24 | inactive |
| S100PBP | SID315458979 | -0.7 | inactive |
| S100PBP | SID315458979 | -1.28 | inactive |
| S100PBP | SID315458979 | -0.52 | inactive |
| TRMT1L | SID315459927 | -1.03 | inactive |
| TRMT1L | SID315459927 | 0.17 | inactive |
| TRMT1L | SID315459927 | -0.98 | inactive |
| TRMT1L | SID315459927 | -0.27 | inactive |
| SP140 | SID315454726 | 5.72 | active |
| SP140 | SID315454726 | 0.92 | inactive |
| SP140 | SID315454726 | -0.34 | inactive |
| SP140 | SID315454726 | 0.55 | inactive |
| SPATA4 | SID315461930 | -1.57 | active |
| SPATA4 | SID315461930 | -0.68 | inactive |
| SPATA4 | SID315461930 | -1.1 | inactive |
| SPATA4 | SID315461930 | -0.11 | inactive |
| VWA2 | SID315464101 | -0.93 | inactive |
| VWA2 | SID315464101 | -0.4 | inactive |
| VWA2 | SID315464101 | -0.54 | inactive |
| KAT5 | SID315454160 | 2.89 | active |
| KAT5 | SID315454160 | 1.51 | inactive |
| KAT5 | SID315454160 | 1.87 | inactive |
| KAT5 | SID315454160 | 3.67 | active |
| TMEM95 | SID315464015 | 0.16 | inactive |
| TMEM95 | SID315464015 | 2.71 | inactive |
| TMEM95 | SID315464015 | 0.71 | inactive |
| TMEM95 | SID315464015 | 1.06 | inactive |
| KDELR3 | SID315454534 | 1.32 | inactive |
| KDELR3 | SID315454534 | 2.51 | inactive |
| KDELR3 | SID315454534 | 0.19 | inactive |
| KDELR3 | SID315454534 | 2.45 | inactive |
| ERG28 | SID315454650 | 0.54 | inactive |
| ERG28 | SID315454650 | 1.33 | inactive |
| ERG28 | SID315454650 | 1.34 | inactive |
| ERG28 | SID315454650 | 0.2 | inactive |
| NOTUM | SID315462314 | -0.74 | inactive |
| NOTUM | SID315462314 | 0.07 | inactive |
| NOTUM | SID315462314 | 0.71 | inactive |
| NOTUM | SID315462314 | -0.13 | inactive |
| RGS18 | SID315458915 | -0.34 | inactive |
| RGS18 | SID315458915 | 11.6 | active |
| RGS18 | SID315458915 | -0.37 | inactive |
| RGS18 | SID315458915 | -0.97 | inactive |
| SNRNP200 | SID315454932 | -0.42 | inactive |
| SNRNP200 | SID315454932 | -0.6 | inactive |
| SNRNP200 | SID315454932 | 0.06 | inactive |
| SNRNP200 | SID315454932 | 0.34 | inactive |
| MATR3 | SID315453561 | 0.87 | inactive |
| MATR3 | SID315453561 | 0.69 | inactive |
| MATR3 | SID315453561 | 0.97 | inactive |
| MATR3 | SID315453561 | 0.27 | inactive |
| MAP2K3 | SID315450830 | 0.18 | inactive |
| MAP2K3 | SID315450830 | 0.46 | inactive |
| MAP2K3 | SID315450830 | -0.32 | inactive |
| TRPC5 | SID315451981 | 0.42 | inactive |
| TRPC5 | SID315451981 | -0.21 | inactive |
| TRPC5 | SID315451981 | -0.28 | inactive |
| TRPC5 | SID315451981 | -0.72 | inactive |
| MBLAC2 | SID315462560 | 1.46 | inactive |
| MBLAC2 | SID315462560 | -0.79 | inactive |
| MBLAC2 | SID315462560 | -1.3 | inactive |
| MBLAC2 | SID315462560 | -0.57 | inactive |
| B3GNT8 | SID315464342 | 1.17 | inactive |
| B3GNT8 | SID315464342 | 2.72 | inactive |
| B3GNT8 | SID315464342 | 2.38 | inactive |
| B3GNT8 | SID315464342 | 3.68 | active |
| SAXO6 | SID315458134 | 0.6 | inactive |
| SAXO6 | SID315458134 | 0.78 | inactive |
| SAXO6 | SID315458134 | 0.46 | inactive |
| SAXO6 | SID315458134 | 1.9 | inactive |
| DEFB103B | SID315457935 | 2.28 | inactive |
| DEFB103B | SID315457935 | 2.49 | inactive |
| DEFB103B | SID315457935 | -0.38 | inactive |
| DEFB103B | SID315457935 | 0.57 | inactive |
| TMED8 | SID315463686 | -1.79 | active |
| TMED8 | SID315463686 | -1.29 | inactive |
| TMED8 | SID315463686 | -1.43 | inactive |
| TMED8 | SID315463686 | -1.07 | inactive |
| C11orf42 | SID315462697 | 0.9 | inactive |
| C11orf42 | SID315462697 | 0.03 | inactive |
| C11orf42 | SID315462697 | 1.67 | inactive |
| C11orf42 | SID315462697 | -0.69 | inactive |
| NPHS1 | SID315450292 | 0.2 | inactive |
| NPHS1 | SID315450292 | 3.23 | active |
| NPHS1 | SID315450292 | 2.1 | inactive |
| NPHS1 | SID315450292 | 2.21 | inactive |
